Values from PubChem BioAssay AID743454 (Peter MacCallum Cancer Centre, 2014).

- Purpose: 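Knock-downs lowering viability or raising caspase 3/7 activity in vorinostat-treated resistant cells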 (primary screen)
- Cell system: human HCT116-VR colon cancer cells, selected for vorinostat resistance
- Reagent: siRNA pool against human genes, 40 nM siRNA pool
- Time to read-out: vorinostat for 24 h, read-out about 72 h after transfection
- Treatment: vorinostat at 2.5 µM final
- Measurement: 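Cell viability by CellTiter-Fluor and caspase 3/7 activity by luminescence, each scaled to mock wells per plate, duplicates averaged, then robust z-scored over all plates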
- Direction: viability robust z-score: higher = more viable cells than screen typical; caspase robust z-score: higher = more caspase 3/7 activity than screen typical
- Rule for the call: 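a knock-down is a hit when classed RV1 or RV2 for lowered viability, or CA1 or CA2 for caspase activation; those lethal without drug were dropped; hits were retested singly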
The whole screen tested about 18,000 reagents; this is a random part of them. 450 of them (2.5%) count as active. 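Single biological run; no consistent viability z cut-off exists, so the class columns, not z-scores, define the calls.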 No sequences are given here.

IL22RA2
- viability hit class: no change
- caspase hit class: no change
- viability robust z-score: 1.14
- caspase robust z-score: 0.46
- activity call: inactive

CYP17A1
- viability hit class: no change
- caspase hit class: no change
- viability robust z-score: -0.19
- caspase robust z-score: -0.69
- activity call: inactive

SLC25A10
- viability hit class: no change
- caspase hit class: no change
- viability robust z-score: -1.21
- caspase robust z-score: -0.5
- activity call: inactive

MKNK2
- viability hit class: no change
- caspase hit class: no change
- viability robust z-score: -1.08
- caspase robust z-score: 0.54
- activity call: inactive

LTO1
- viability hit class: no change
- caspase hit class: no change
- viability robust z-score: 1.42
- caspase robust z-score: -0.92
- activity call: inactive

KMO
- viability hit class: no change
- caspase hit class: no change
- viability robust z-score: -0.17
- caspase robust z-score: 0.16
- activity call: inactive

FAM53C
- viability hit class: no change
- caspase hit class: no change
- viability robust z-score: -0.66
- caspase robust z-score: -0.68
- activity call: inactive

PABIR3
- viability hit class: no change
- caspase hit class: no change
- viability robust z-score: 1.05
- caspase robust z-score: -0.28
- activity call: inactive

ALX3
- viability hit class: no change
- caspase hit class: no change
- viability robust z-score: -0.56
- caspase robust z-score: 0.44
- activity call: inactive

RBP5
- viability hit class: no change
- caspase hit class: no change
- viability robust z-score: 1.75
- caspase robust z-score: -0.29
- activity call: inactive

TIAL1
- viability hit class: no change
- caspase hit class: no change
- viability robust z-score: -0.89
- caspase robust z-score: 1.97
- activity call: inactive

PDIA2
- viability hit class: no change
- caspase hit class: no change
- viability robust z-score: 0.86
- caspase robust z-score: 0.29
- activity call: inactive

DHX57
- viability hit class: no change
- caspase hit class: no change
- viability robust z-score: -0.35
- caspase robust z-score: -0.62
- activity call: inactive

ARHGAP33
- viability hit class: no change
- caspase hit class: no change
- viability robust z-score: -1.02
- caspase robust z-score: 0.32
- activity call: inactive

Reformatted: results already given
gene symbol,viability hit class,caspase hit class,viability robust z-score,caspase robust z-score,activity call
KMO,no change,no change,-0.17,0.16,inactive
FAM53C,no change,no change,-0.66,-0.68,inactive
